These are yes or no findings as the source states them, for the method shown. In cells and extracts the contact can be indirect. Binding can be weak; no strength is given.
Biological target: His-KIX8 (Arabidopsis thaliana (Col-0))
Assay: pull-down; His-KIX8 incubated with GST-MYC3 or GST-MYC4 and MBP-PPD1 or MBP-PPD2 (E. coli proteins obtained by sonication), 4 °C 1 h; pulled down with Ni-NTA agarose; blot with anti-GST, anti-MBP and anti-His

Sequences of proteins named here, by UniProt entry; tags and fusion partners are left off.
UniProt Q7XA73: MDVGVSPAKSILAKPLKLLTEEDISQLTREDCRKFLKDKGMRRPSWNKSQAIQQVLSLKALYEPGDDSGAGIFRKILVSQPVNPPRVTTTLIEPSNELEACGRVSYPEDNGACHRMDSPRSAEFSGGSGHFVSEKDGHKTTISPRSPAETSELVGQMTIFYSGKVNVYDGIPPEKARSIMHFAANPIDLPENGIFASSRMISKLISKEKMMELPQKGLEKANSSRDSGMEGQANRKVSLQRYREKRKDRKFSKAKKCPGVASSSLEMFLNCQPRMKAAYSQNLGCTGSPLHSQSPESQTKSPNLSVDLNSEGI
UniProt Q8GY55: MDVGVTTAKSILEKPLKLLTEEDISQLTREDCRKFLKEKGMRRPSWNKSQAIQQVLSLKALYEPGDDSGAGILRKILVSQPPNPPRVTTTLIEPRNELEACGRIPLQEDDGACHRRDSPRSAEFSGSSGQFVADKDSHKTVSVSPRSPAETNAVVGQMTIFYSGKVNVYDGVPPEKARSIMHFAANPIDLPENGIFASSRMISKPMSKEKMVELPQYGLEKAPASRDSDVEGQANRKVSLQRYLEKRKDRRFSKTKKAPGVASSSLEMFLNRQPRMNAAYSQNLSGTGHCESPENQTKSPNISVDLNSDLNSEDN

MBP-PPD1 (from UniProt Q7XA73 1-313)
binding: binds

MBP-PPD2 (from UniProt Q8GY55 1-315)
binding: binds

Reference: article PMC7160150, “Transcriptional repression of GIF1 by the KIX-PPD-MYC repressor complex controls seed size in Arabidopsis”
